Earlier results in patent publication US11812753B2, “Solvent compositions promoting plant growth” (priority 2020, dated 2023).
Some of these results come from one statement about several compounds together.

Settings: summary of Table 1; cited from earlier work

| Structure (SMILES) | boiling point | flash point |
| --- | --- | --- |
| CC(=O)OCC(COC(C)=O)OC(C)=O [Glyceryl triacetate] | above 200 °C | above 115 °C |
| CCCCOCCOCCO [Diethylene glycol butyl ether] | above 200 °C |  |
| CC(O)CO (centres unmarked) [Propylene Glycol, reference compound] | above 200 °C | above 115 °C |
